In article doi:10.1101/031336:
Where a chain is given by its changes, count along the chain named. These are yes or no findings as the source states them, for the method shown. In cells and extracts the contact can be indirect. For part of these data: Binding can be weak; no strength is given. Tags and fused reporters may be left off the sequences shown.

Legend:
Assay in all cases: co-IP
[1] = target: T1, 2xFlag-359/360AA (human) (UniProt Q9P2S5)
T1 sequence: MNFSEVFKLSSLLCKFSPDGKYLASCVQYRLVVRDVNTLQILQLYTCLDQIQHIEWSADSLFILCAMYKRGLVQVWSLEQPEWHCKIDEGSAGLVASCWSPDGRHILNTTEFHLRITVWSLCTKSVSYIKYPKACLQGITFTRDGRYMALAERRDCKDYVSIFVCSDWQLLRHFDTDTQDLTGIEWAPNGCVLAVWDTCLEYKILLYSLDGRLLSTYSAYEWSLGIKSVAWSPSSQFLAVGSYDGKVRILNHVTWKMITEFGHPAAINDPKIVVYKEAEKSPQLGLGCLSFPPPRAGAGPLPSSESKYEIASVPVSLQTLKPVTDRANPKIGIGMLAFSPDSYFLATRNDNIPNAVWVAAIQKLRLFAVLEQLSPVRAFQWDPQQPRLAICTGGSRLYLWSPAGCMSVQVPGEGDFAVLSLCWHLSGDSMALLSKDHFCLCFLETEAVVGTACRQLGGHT

[2] = target: T2, 2xFlag-196/197AA (human) (UniProt Q9P2S5)
T2 sequence: T1 sequence with W196A, D197A, A359W, A360D

[3] = target: T3, 2xFlag-huWdr8 wild-type (human) (UniProt Q9P2S5)
T3 sequence: T1 sequence with A359W, A360D

- binding [1]: no binding
- binding [2]: no binding
- binding [3]: binds
Substance: SSX2IP
